Measured values: publication PMC6404604

Chains of the proteins cited; added tags and fusions are not shown. Lines headed by an entry give the natural chain unless they say otherwise; changes in a name come on top.
UniProt P34216: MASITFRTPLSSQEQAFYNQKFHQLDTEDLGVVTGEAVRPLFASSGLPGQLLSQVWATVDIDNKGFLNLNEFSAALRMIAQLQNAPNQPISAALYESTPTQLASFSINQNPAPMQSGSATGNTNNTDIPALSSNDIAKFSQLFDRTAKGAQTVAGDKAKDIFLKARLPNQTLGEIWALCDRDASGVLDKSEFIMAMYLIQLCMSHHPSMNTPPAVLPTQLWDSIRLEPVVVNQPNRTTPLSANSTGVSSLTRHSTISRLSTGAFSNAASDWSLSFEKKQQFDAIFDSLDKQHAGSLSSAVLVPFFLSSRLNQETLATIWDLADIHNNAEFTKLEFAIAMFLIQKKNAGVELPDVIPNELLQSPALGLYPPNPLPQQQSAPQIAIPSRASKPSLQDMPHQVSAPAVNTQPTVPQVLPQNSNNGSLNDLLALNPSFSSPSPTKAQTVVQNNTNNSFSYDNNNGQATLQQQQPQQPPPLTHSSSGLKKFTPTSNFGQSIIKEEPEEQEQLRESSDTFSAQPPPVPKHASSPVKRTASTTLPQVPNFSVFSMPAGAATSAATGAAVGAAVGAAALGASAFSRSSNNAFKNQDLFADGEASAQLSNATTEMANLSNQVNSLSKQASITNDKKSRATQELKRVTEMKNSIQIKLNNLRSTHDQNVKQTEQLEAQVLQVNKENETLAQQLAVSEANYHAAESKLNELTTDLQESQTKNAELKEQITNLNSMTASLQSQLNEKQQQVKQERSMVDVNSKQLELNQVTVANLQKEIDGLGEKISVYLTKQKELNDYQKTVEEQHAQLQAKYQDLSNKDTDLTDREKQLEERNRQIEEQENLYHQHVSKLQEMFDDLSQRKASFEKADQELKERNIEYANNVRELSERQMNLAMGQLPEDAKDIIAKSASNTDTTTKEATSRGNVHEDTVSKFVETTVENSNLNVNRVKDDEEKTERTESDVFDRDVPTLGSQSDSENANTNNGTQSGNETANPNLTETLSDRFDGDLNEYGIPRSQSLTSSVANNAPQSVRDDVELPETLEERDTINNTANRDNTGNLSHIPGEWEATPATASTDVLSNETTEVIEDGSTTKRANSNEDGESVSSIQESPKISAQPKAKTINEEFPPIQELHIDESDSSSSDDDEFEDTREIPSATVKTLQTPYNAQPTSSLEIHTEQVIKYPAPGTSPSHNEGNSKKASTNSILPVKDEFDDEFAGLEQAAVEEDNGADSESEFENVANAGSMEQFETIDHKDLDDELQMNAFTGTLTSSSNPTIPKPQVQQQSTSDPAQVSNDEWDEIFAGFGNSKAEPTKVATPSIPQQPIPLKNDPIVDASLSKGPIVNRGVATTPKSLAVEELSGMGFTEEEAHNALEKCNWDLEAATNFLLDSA

Target: His6-Ede1 (EH1-3) (S. cerevisiae) (UniProt P34216)
Assay: pull-down; purified His6-tagged protein (~30 ug) held on Ni-NTA agarose beads, incubated with 200 ul yeast lysate for 2 hr at 4 degrees; lysis buffer 10 mM Tris pH 8.0, 140 mM NaCl, 0.1% Tween-20, 1 mM beta-mercaptoethanol; detection by anti-GFP immunoblot; only the target purified

binding	Binder
binds	Pal2-GFP (protein, UniProt P38809 1-366) MNQTGRTIGGPQNGVNTVINPFRVSPSEDRVSSRDETPRNYNNPFLNEDDTRRAHNSSVSNSRQERLPSYEEAAGTPKQQAPYPKEKKRSSGSNSHQHNHHHHRRTSHGHRDKDKQKSKSRTKVKPPKNVDTIDKMDVTGLFGGSFHHDGPFDACTPQRNKNNKVAPVLAFPADGPNNTVGGRTSKKSTLDEVFGRETVDDDSETLNQLQDRAYLFNKANSSTTTLDAIKPNSKNITQFDSKMKTELVHGPITMGLGSTTFLDGAPASSAAIEQDVINHAQESRRKNSIARKKSLPSRRHLQVNNNNLKLVKTHSGHLEQKDVDDNRTSVPVTATQGSGHEDVVKKENTGNKLLRRVKSLKTSKKH
binds	Pal1-GFP (protein, UniProt Q05518 1-499) MENRNSSTSSRPFSVNNPFRNATVDSSINQYKNDSQFQEWAKNQSRTNSFDMPQLNTRTSSQLSFPNIPEDEPQRNADQQGAFYSGLESFSSGSLSPPSRPLSSKNPFLDDVSSATDFRRSPPPVSRNKNHPTAKEEKEQLRQRYLEESDVSTVGNTRENTDLPPSYEEITSTNGSRRAYPKEKVSRPSSHREHSNSGTYISRRSSSHHHREASSSSTPSKKGKRKSKVIVPKNVDTIDKLDVTGLFGGSFHHDGPFDAVTPHRNKNNKAAPVLAFPVDGPNSTIGGASTKKSALDEVFGRDDTDDSDIYQYSSQTLRRGGDTQDAIKANVGNVQQMDAKNKTELVHGPVTAGLGSSTFLDGAPASSAAIRNDIKAHSYHNRNGGLQRNKSLSQRLGLGGSGDSNAPMTGVRRNLSLSRDNYDVGHSNEGVRRSKTVNSPNRTHKSNYTTDFDGQDDHNEDEEDVYLGVRYNEPNMKKKSTGSKLLSRVKSLKVGRKSQ

Results are given in words; binding and its absence hold for the method and conditions named. In cells and extracts the contact can be indirect. Binding calls can cover weak binding; strength is not graded here. Tags and fused reporters may be left off the sequences shown.
